Measured values from patent US6288028A, “BPC peptide salts with organo-protective activity, the process for their preparation and their use in therapy” (priority 1997, dated 2001).
At least one peptide structure holds a part that was inferred or is arguable (an end, a ring closure or a residue). Where no end group is shown, it is not given here.

Key:
[1] = tested on: blood pressure; assay: Blood pressure maintenance, NO-system; assay type: in vivo, rats
[2] = tested on: gastric lesions (96% ethanol, restraint stress, indomethacin); assay: Gastric lesions with capsaicin (somatosensory neurons); assay type: in vivo, rats
[3] = tested on: granulation tissue, endothelial spaces; assay: Subcutaneous sponge implantation, angiogenesis; assay type: in vivo, rat; conditions: three days after implantation, vs control
[4] = tested on: amphetamine stereotyped behavior; assay: Amphetamine stereotypes and excitability; assay type: in vivo, rats; conditions: 10 μg or 10 ng/kg i.p.; amphetamine 10 mg/kg i.p.; co-treatment or at maximum of disturbances
Method: The effects of NaBPC157 on the dopamine agonist amphetamine (10 mg/kg i.p.) stereotypes and on excitability were studied. NaBPC157 was applied as a prophylactic co-treatment or therapeutic salutary regimen (10 μg or 10 ng/kg i.p.). The stereotyped behaviour and excitability was induced in rats.

[5] = tested on: acute pancreatitis; assay: Acute pancreatitis (bile duct ligation); assay type: in vivo, rats
[6] = tested on: desipramine cardiotoxicity; assay: Desipramine cardiotoxicity; assay type: in vivo, Albino Wistar rats and Hartley guinea pigs; conditions: 50 μg/kg, 50 ng/kg i.p. one hour before
[7] = tested on: ischemia and myocardial infarction; assay: Isoprenaline cardiotoxicity; assay type: in vivo, Albino Wistar rats and Hartley guinea pigs; conditions: more pronounced with microgram dosages
[8] = tested on: doxorubicin cardiomyopathy; assay: Doxorubicin cardiomyopathy; assay type: in vivo, Albino Wistar rats and Hartley guinea pigs
[9] = tested on: reserpine catalepsy, hypothermia; assay: Reserpine catalepsy and hypothermia; assay type: in vivo
[10] = tested on: wound healing; assay: Wound healing (skin incision, colon-colon and esophago-duodenal anastomoses); assay type: in vivo, rat
[11] = tested on: Pulmonary Hypertension Syndrome (PHS) and tissue lesions; assay: Pulmonary Hypertension Syndrome, acute and chronic toxicity; assay type: in vivo, chicks
Method: The present experiments describe the effects of nitric oxide (NO) agonists and antagonists and the influence of NaBPC157 on the development of Pulmonary Hypertension Syndrome (PHS) and tissue lesions in chicks. Experiments investigating acute toxicity were conducted. These included single dose applications of saline (1 ml i.p.), NaBPC157 (10 μg/kg b.w.), L-NAME (NO antagonist/doses 50, 100, 150 mg/kg b.w.) and L-arginine (NO agonist/100 mg/kg b.w./with their combination (L-NAME+NaBPC157, L-NAME+L-arginine)). Pathohistological examinations of the spleen, heart, liver and lungs and hematological analyses were conducted. Furthermore, chronic toxicity experiments were conducted. The animals were treated daily during five weeks with L-NAME (10 mg/kg b.w.), L-arginine (100 mg/kg b.w.), NaBPC157 (10 μg/kg b.w.) and their combinations (L-NAME+NaBPC157, L-NAME+L-arginine) intraperitoneally. Seven animals from each group including controls (saline 1 ml i.p.) were sacrificed every week.

[12] = tested on: brain ischemic lesions; assay: Carotid artery ligation, brain ischemia; assay type: in vivo, rats; conditions: 10 μg or 10 ng/kg b.w., i.p., 1 hour before or after ligation; 3 or 6 hours
[13] = tested on: haloperidol, fluphenazine catalepsy; sulpiride; assay: Neuroleptic-induced catalepsy; assay type: in vivo, mice
[14] = tested on: lymphocyte chromosome aberrations and T cell proliferation; assay: Abnormal lymphocytes of patients in vitro; assay type: cell-based
[15] = tested on: vitamin A induced malformations; assay: Vitamin A induced malformations; assay type: in vivo, mice; conditions: 10 ng/kg or 10 μg/kg b.w., i.p. with vitamin A, tenth day of pregnancy
[16] = tested on: vaginal atrophy; assay: Ovariectomy, vaginal smear maturation value; assay type: in vivo, rats; conditions: daily treatment, both doses, ovariectomized
[17] = tested on: femoral and tibial bone bending; assay: Ovariectomy, bone biomechanical testing; assay type: in vivo, rats
[18] = tested on: carcinoma and melanoma B-16 metastases; assay: Metastases of carcinoma and melanoma B-16; assay type: in vivo, mice; conditions: different protocols
[19] = tested on: ARBO-viruses (TBE, Bhania, Dengue 1, 2, 3, 4, Sinbis, West Nile, Ealovo), Hepatitis A, LCM, Herpes type 1; conditions: mouse, in vivo
[20] = tested on: diazepam tolerance and withdrawal; assay: Diazepam tolerance and physical dependence, isoniazid latencies; assay type: in vivo, mice
Method: In tolerance assays forty-two hours after the conditioning regimen, shorter preconvulsive latencies than that in healthy mice following an isoniazid treatment (800 mg/kg i.p.) were observed if diazepam (5.0 mg/kg i.p.) was given again to mice previously conditioned with diazepam alone. […] In this group at six hour intervals, unlike in diazepam conditioned mice, isoniazid preconvulsive latencies were still longer than in corresponding controls.

[21] = tested on: remaining kidney function and hypertrophy; assay: Unilateral nephrectomy; assay type: in vivo; conditions: unilaterally nephrectomized animals
[22] = tested on: amphetamine climbing behavior; assay: Haloperidol/amphetamine climbing behavior; conditions: coadministered with haloperidol 5.0 mg/kg i.p.; amphetamine 20 mg/kg i.p.

GEPPPGKPADDAGLV [NaBPC157, Monosodium Salt of BPC157]
effect on L-arginine-induced blood pressure decrease ([1]; NaBPC157 pre-treatment): prevented
effect on blood pressure after L-NAME+L-arginine ([1]; given 10 minutes after L-NAME+L-arginine): disappeared
effect on already raised L-NAME blood pressure ([1]; i.v., 10 minutes after L-NAME): decreased already raised L-NAME values
effect on L-NAME blood pressure increase, prophylactic ([1]; i.v., applied prophylactically): impaired L-NAME-blood pressure increase
effect on basal blood pressure ([1]; i.v., normal rats): without effect on basal normal values
gastric mucosa protection, absence of capsaicin ([2]; 10 μg/kg, 10 ng/kg i.p., ethanol, restraint stress, indomethacin): protected the gastric mucosa
beneficial activity with excitatory dose of capsaicin ([2]; capsaicin 500 μg/kg i.p.): additionally increased
gastric protection, neurotoxic doses of capsaicin ([2]; capsaicin treated as adults or neonatals): protection was still evident
mucosal protection after neonatal capsaicin, same dose daily ([2]; ng dose used daily): fully reversed
gastroprotection after neonatal capsaicin, single ng-regimen ([2]; single ng-regimen): complete abolition of the gastroprotection
granulation tissue around sponge, three days [3]: significantly more granulation tissue
amphetamine stereotyped behavior and increased excitability [4]: marked attenuation and reversal
pancreatic protection, pre-treatment ([5]; 10 μg or 10 ng/kg b.w., i.p., i.g., 1 hour before ligation): strong pancreatic protection
established severe acute pancreatitis, therapy ([5]; daily application from 1 day after ligation): obvious salutary effect
necrosis, edema, neutrophils and mononuclears ([5]; histology): consistently less necrosis, edema and neutrophils, but more mononuclears
gastric and duodenal lesion course in bile duct ligated rats ([5]; pre- and post-treatment): positive influence
serum amylase, pre-treatment ([5]; relative to control): markedly lower rise
serum amylase, therapy ([5]; relative to control): detriment of the already raised values
desipramin ventricular tachycardia and severe atrioventricular block [6]: also prevented ventricular tachycardia
desipramin-induced sudden decrease in heart rate and conduction disturbances [6]: completely prevented
ischemia and myocardial infarction [7]: clearly prevented ischemia and myocardial infarction
LDH activity ([8]; doxorubicin): significantly decreased
pathomorphological findings of antracyclin cardiomyopathy ([8]; single and multiple doxorubicin, 10 μg/kg, 10 ng/kg i.p.): significantly reduced pathomorphological findings
reserpine catalepsy, pre-treatment ([9]; 10.0 μg or 10.0 ng/kg b.w., i.p., 15 minutes before reserpine): strongly prevented
reserpine catalepsy, post-treatment ([9]; applied 24 hours after reserpine): reversed the established catalepsy
reserpine temperature fall, post-treatment ([9]; post-treatment): reversal of further prominent temperature fall
reserpine-hypothermia, pre-treatment ([9]; pre-treatment): reduction of reserpine-hypothermia
tensile strength ([10]; rat, in vivo): increased values
healing elements (collagen, reticulin, blood vessels) ([10]; three rat models, intragastric and local application): significant differences between NaBPC157 treated rats and controls
inhibition of the effects of L-NAME ([11]; in vivo): successfully inhibited
prevention of L-NAME-caused PHS ([11]; simultaneous application, L-arginine 100 mg/kg, NaBPC157 10 μg/kg b.w.): prevented
brain ischemia score [12]: strong positive effect
catalepsy at lower dosages of haloperidol and fluphenazine ([13]; 10 μg or 10 ng/kg b.w., i.p.): consistently attenuated
somatosensory orientation of sulpiride treated animals ([13]; sulpiride 20, 40, 80, 160 mg/kg b.w., i.p.): also noted
catalepsy at higher dosage of both neuroleptics ([13]; μg and ng doses): even stronger beneficial anticataleptic effect
mitosis cycles [14]: stimulatory effect on mitosis cycles
lymphocyte chromosome aberrations ([14]; two female patients): significant reduction of severe types of chromosome aberrations
number of malformations [15]: significant reduction in the number of malformations
maturation value of vaginal epithelium [16]: noticeably increased maturation value
bone bending parameters, healthy rats ([17]; non-ovariectomized, μg or ng vs saline): no difference
bone bending parameters, single μg-application ([17]; single μg-application on 15th day post ovariectomy): positive tendency
number of metastases [18]: decrease the number of metastases
survival time, given in severe disease [19]: significant prolongation of survival time
symptoms and death, pre-treatment [19]: complete lack of either symptoms or subsequent death
virulence of brain suspension from treated surviving mice [19]: no disease symptoms or death
disease symptoms and death, simultaneous application ([19]; ip): significant delay of the onset of disease symptoms and consequent death
shortened pre-convulsive latencies in physical dependence assay ([20]; 10 μg/kg dose combined with diazepam): postponed this effect until the last observed interval
diazepam efficacy on coadministration ([20]; 10 μg/kg, 10 ng/kg i.p. with diazepam 5.0 mg/kg i.p. twice daily for 10 days): improved the diazepam efficacy
diazepam tolerance ([20]; coadministered with diazepam): attenuated diazepam tolerance
shortened preconvulsive latencies in tolerance assay ([20]; forty-two hours after conditioning, both doses, isoniazid 800 mg/kg i.p.): completely avoided
anti-convulsant effect ([20]; interacting with the GABAergic system): anti-convulsant effect
diuresis [21]: increased diuresis
hypertrophy of the remaining kidney [21]: decreased the hypertrophy of the remaining kidney
haloperidol-increased amphetamine climbing behavior [22]: almost complete counteraction
